In article doi:10.1101/2022.09.07.507063:
Results are given in words; binding and its absence hold for the method and conditions named. In cells and extracts the contact can be indirect. Some results given as binding are weak or reduced against the parent protein; the word gives no strength.

Protein sequences, listed by entry. Tags and fused reporters are not part of them. Residues count along the entry.
UniProt P25445, residues 26-335: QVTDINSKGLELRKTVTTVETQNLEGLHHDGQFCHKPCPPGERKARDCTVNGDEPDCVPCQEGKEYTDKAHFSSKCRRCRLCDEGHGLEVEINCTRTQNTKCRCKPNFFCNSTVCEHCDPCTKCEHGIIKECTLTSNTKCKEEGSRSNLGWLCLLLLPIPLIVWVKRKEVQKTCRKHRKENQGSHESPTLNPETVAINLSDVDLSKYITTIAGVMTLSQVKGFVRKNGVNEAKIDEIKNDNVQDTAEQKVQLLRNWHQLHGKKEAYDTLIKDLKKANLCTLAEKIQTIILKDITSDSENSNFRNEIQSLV
UniProt O00220, residues 24-468: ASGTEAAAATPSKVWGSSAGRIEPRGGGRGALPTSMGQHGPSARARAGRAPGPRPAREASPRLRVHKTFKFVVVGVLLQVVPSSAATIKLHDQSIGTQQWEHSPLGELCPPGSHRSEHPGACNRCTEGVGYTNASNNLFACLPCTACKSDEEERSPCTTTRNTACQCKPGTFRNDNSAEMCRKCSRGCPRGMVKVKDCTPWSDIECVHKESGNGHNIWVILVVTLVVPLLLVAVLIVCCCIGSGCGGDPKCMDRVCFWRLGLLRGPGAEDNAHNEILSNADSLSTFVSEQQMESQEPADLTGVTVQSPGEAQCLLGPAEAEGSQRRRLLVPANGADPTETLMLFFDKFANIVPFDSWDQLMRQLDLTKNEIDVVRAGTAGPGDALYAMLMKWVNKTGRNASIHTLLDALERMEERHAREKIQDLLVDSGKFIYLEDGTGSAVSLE

T1: membrane-associated RING-CH-type finger ubiquitin ligase MARCHF8 (human (endogenous in SCC152)) (UniProt Q5T0T0)
T1 sequence: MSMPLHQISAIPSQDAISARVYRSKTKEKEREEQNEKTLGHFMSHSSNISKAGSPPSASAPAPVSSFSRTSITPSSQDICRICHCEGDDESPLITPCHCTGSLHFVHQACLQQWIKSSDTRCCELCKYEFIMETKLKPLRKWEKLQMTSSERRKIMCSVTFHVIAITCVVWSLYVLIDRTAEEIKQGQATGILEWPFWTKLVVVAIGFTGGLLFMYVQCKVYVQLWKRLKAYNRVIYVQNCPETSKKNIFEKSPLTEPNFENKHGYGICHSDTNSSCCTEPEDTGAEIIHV

B1: membrane-associated RING-CH-type finger ubiquitin ligase MARCHF8 (enzyme, UniProt Q5T0T0 1-291)
chain: T1 sequence

What was measured:
[1] = target: T1, membrane-associated RING-CH-type finger ubiquitin ligase MARCHF8 (human (endogenous in SCC152)); assay: co-IP
[2] = target: FAS (human (endogenous in SCC152)) (UniProt P25445); assay: co-IP

| Molecule | binding [1] | binding [2] |
| --- | --- | --- |
| FAS (from UniProt P25445 26-335) (receptor) | binds |  |
| tumor necrosis factor (TNF)-related apoptosis-inducing ligand receptor TRAIL-R1 (from UniProt O00220 24-468) | binds |  |
| B1 |  | binds |
